The results in this text go back to PMC9505868.

By UniProt entry, the sequences of proteins in these tests, tags left out. Where a name states a change or a piece, a line headed by the entry shows the natural chain unless it says otherwise.
UniProt Q05128: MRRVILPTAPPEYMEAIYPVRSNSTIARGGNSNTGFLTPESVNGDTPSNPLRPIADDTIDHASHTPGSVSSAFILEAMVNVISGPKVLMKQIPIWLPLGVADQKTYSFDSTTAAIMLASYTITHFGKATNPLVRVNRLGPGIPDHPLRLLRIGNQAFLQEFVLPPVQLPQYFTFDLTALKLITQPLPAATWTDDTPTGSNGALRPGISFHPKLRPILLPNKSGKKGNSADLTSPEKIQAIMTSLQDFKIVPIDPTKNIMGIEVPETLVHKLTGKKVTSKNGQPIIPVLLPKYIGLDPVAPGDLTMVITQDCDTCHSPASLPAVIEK
UniProt P46939: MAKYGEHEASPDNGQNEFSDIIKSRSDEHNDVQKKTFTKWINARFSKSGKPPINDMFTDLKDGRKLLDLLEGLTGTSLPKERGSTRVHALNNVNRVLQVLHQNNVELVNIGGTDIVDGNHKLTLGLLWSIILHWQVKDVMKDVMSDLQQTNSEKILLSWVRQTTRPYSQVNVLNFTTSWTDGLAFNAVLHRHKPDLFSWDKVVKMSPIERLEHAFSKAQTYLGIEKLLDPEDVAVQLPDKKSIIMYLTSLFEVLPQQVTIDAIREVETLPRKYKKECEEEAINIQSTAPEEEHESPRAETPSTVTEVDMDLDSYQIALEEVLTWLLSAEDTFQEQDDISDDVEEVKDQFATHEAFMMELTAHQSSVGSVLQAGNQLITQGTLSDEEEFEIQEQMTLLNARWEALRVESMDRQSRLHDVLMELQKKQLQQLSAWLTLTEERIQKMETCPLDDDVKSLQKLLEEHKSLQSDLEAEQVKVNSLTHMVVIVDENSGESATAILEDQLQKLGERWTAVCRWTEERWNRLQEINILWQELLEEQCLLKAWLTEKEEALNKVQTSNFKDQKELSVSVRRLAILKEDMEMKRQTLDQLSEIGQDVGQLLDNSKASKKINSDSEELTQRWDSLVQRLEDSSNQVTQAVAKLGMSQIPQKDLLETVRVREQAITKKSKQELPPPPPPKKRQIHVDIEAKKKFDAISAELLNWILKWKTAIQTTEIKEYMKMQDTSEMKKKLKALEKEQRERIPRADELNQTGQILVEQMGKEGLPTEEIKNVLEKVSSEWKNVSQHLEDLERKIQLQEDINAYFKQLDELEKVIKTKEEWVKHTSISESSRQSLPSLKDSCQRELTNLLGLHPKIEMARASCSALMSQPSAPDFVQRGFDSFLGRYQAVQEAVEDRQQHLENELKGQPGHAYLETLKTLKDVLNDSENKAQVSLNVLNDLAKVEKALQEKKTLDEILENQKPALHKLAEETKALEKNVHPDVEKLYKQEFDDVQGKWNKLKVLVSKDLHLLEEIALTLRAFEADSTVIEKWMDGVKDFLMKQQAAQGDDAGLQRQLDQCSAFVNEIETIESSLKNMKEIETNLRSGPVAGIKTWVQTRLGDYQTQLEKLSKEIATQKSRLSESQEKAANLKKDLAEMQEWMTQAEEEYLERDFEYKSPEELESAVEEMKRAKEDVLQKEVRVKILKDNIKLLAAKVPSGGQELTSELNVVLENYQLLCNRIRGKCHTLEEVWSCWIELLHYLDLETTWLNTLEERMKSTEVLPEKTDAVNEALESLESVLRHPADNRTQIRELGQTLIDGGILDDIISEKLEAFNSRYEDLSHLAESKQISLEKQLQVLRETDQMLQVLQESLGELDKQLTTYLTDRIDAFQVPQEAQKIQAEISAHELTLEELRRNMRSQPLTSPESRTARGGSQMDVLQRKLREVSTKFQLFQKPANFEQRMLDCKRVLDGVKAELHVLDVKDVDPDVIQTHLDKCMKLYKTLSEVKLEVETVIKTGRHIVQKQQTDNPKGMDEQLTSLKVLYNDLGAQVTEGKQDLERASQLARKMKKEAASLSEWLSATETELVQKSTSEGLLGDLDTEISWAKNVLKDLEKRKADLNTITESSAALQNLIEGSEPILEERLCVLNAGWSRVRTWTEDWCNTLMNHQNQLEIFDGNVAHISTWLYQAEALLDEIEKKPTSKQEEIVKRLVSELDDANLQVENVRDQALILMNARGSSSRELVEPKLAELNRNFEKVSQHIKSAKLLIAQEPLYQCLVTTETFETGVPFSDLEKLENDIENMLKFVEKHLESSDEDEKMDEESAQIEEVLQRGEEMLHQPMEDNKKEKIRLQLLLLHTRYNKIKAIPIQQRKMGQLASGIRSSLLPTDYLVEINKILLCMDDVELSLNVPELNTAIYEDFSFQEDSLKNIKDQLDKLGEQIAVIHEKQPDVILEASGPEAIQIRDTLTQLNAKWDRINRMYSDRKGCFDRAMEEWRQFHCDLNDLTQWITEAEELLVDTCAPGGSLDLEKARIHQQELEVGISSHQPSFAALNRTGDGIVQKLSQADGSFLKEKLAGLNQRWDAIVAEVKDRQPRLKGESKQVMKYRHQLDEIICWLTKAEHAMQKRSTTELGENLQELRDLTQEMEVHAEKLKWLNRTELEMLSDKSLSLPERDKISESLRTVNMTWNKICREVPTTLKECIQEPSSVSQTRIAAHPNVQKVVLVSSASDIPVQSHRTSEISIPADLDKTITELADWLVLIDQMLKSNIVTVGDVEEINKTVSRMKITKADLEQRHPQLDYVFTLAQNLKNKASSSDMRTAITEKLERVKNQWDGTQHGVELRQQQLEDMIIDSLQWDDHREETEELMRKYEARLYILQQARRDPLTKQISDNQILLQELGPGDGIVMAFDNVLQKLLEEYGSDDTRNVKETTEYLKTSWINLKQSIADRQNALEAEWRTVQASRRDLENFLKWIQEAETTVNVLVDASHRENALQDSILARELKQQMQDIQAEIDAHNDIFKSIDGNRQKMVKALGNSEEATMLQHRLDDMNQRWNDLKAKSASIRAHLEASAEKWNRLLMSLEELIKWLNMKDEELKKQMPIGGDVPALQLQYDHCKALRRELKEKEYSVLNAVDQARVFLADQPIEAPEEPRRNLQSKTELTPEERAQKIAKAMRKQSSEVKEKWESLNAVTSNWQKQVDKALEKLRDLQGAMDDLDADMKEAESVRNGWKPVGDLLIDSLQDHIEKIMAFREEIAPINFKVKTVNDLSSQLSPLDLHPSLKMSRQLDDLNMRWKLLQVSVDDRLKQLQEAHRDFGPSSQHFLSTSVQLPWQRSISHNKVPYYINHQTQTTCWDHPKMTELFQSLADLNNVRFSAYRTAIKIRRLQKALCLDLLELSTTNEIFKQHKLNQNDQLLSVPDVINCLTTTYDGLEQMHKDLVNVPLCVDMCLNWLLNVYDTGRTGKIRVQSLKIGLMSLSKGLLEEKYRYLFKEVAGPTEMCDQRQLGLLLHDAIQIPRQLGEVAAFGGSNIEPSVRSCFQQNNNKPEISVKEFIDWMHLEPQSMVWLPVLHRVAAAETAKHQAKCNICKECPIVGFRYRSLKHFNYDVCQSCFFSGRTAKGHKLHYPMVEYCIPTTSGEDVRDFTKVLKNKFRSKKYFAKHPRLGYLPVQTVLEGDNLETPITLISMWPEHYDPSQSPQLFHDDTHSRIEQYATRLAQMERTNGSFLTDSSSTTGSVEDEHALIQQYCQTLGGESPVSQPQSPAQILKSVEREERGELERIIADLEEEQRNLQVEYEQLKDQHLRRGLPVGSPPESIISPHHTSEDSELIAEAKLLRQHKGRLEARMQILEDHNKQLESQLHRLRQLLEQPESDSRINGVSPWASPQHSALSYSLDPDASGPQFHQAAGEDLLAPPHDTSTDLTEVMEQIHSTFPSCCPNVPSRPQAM

These are yes or no findings as the source states them, for the method shown. Binding seen in cells or lysates may run through a third protein. A result given as binding can be weak or reduced; the word gives no strength.

The target of this assay is GFP10-VP40 (EBOV VP40 fused to the 10th beta-strand of GFP) (Ebola virus (EBOV)) (UniProt Q05128). The assay is described as follows: split reporter.

Regarding “CH domain from utrophin fused to GFP B11 (from UniProt P46939) (domain or fragment)”, the binding result was “binds”.
